Four molecules from article PMC8383118 can be followed below.

Assay [1] addresses ComR S. mutans, full length (Streptococcus mutans). In words: SEC; proteins incubated on ice 15 min at 1:1.5 molar ratio ComR:Prx (higher ratio of DBD); Superdex 75; 20 mM Tris-HCl pH 7.5, 100 mM NaCl, 1 mM β-ME; fractions on SDS-PAGE; both purified. On the technique in general: Size exclusion chromatography separates by hydrodynamic size, large species first.
The target is the same in assay [2]. As to the kind of experiment: ITC; 300 μM Prx (or PrxD32A) injected into 20 μM ComR S. mutans or DBD, 25 °C, gel filtration buffer (20 mM Tris-HCl pH 7.5, 100 mM NaCl, 1 mM β-ME); one site model; both purified. (Isothermal titration calorimetry measures the heat released or taken up as one component is titrated into another.)

No constants are given. Whether binding was seen depends on the method and setting. For some of these results: Binding can be weak; no strength is given.

B1: Prx D12A (protein, UniProt Q4VUT1 1-60)
chain: MLTYDEFKQAIARGYITADTVMIVRKNGQIFDYVLPNEKIKNGEIVTDEKVEEVLVELSR
Consider B1, for which, in assay [1], the binding entry is “binds”.

B2: PrxE6A (protein, UniProt Q4VUT1 1-60)
chain: MLTYDAFKQAIDRGYITADTVMIVRKNGQIFDYVLPNEKIKNGEIVTDEKVEEVLVELSR
Turning to B2, the binding entry in assay [1] is “no binding”.

B3: PrxD32A (protein, UniProt Q4VUT1 1-60)
chain: MLTYDEFKQAIDRGYITADTVMIVRKNGQIFAYVLPNEKIKNGEIVTDEKVEEVLVELSR
As for B3, the binding entry in assay [2] is listed as “no binding (tested: 300 μM PrxD32A injected into 20 μM ComR)”.

B4: PrxF31A (protein, UniProt Q4VUT1 1-60)
chain: MLTYDEFKQAIDRGYITADTVMIVRKNGQIADYVLPNEKIKNGEIVTDEKVEEVLVELSR
Turning to B4, in assay [1], the binding result was “binds”.
